Measured values taken from patent US20250127698A1, “Hair Perming Compositions With Amine Derivatives” (ELC Management LLC, priority 2023, published 2025).
For at least one compound, name, drawing or mass did not settle the structure.

How the values were obtained:
[1] = Curl efficiency after hair curling treatment; design: species or system human; details: Type 1 Caucasian hair
From the text: (§1) The ability of each test composition to curl hair was established by measuring “curl efficiency”. Curl efficiency is a measure of curl tightness following a hair curling treatment. The higher the efficiency, the tighter the curl. We used a well-known method of measuring curl efficiency, wherein a portion of untreated straight hair of known length, Lu, is secured on an arrangement of pegs to form a sine wave pattern of five cycles, crest-to-crest. Because the pegs are fixed, the ideal length, Li, of the portion of hair when arranged into the five-cycle wave pattern, is known. Starting with a straight swatch of hair of length Lu, the ideal outcome would be a curled swatch of hair with a length of Li. Curl efficiency is a measure of how closely the ideal is attained.
(§2) Two types of hair samples were tested for curling; mixed sourced virgin Type 1Caucasian hair, and single sourced virgin Type 1 hair. For straightening, mixed sourced virgin Type 2C (very wavy) Caucasian hair was tested. Hair straightening test samples were prepared by collecting hair fibers into tresses, and clamping each tress at both ends. For those test samples that were to undergo a straightening treatment, the length, Lu, was measured between two previously determined points.
(§3) Each hair tress was wetted (reverse osmosis water). For curling, each hair tress was wound along a peg board to form a sine wave pattern of five cycles, as described above. For straightening, each hair tress was held on a board in a straight conformation, tension was applied, and the ends of the tress were secured. All test samples (curling or straightening) were allowed to dry before proceeding. Each board with a hair tress test sample was dipped for 10 seconds into a beaker with one of the hair perming compositions. […] At this point, the ideal length, Li, was measured between the two previously determined point mentioned above. […]
(§4) For the curling test samples, the length, Lt, of five waves, crest to crest was measured. For the straightening test samples, the final length, Lt, was measured between the two previously determined points. […]

[2] = pH of hair perming composition; type: physicochemical
From the text: For testing, we prepared the hair perming compositions shown by Tables 2 and 3, below. […] All compositions contain the same molar percentage of alkalizer, the water content being adjusted accordingly.

[3] = Curl efficiency after hair curling treatment; design: species or system human; % Change In Curl Efficiency From 1 to 8 Washes: concentration or dose not given beside the values; details: Type 1 Chinese hair
From the text: as §1, §2, §3, §4

[4] = Straightening efficiency after hair straightening treatment; design: species or system human; details: Type 2C Caucasian hair; 1 wash with 5% SDS solution
From the text: The ability of each test composition to straighten curly hair was established by measuring “straightening efficiency”. Straightening efficiency represents the degree to which curly hair is made straight by a hair straightening treatment. We start with a curly, untreated hair tress of length Lu. The tress has an ideal straight length of Li, which is the length of the untreated tress when flat ironed to its maximum, straight length. After treatment the tress has a length of Lt. Straightening efficiency is the gain in length as a percentage of the maximum possible gain in length. […] A straightening efficiency of 100% means that the treated tress retained the maximum possible length.
Two types of hair samples were tested for curling; mixed sourced virgin Type 1Caucasian hair, and single sourced virgin Type 1 hair. […] For those test samples that were to undergo a straightening treatment, the length, Lu, was measured between two previously determined points.
Each hair tress was wetted (reverse osmosis water). […] At this point, the ideal length, Li, was measured between the two previously determined point mentioned above. […]
as §4

[5] = equivalent of 8 washes with 5% SDS solution

SMILES: CC(C)(N)CO [AMP, Aminomethyl propanol, reference compound]
- % Change In Curl Efficiency From 1 to 8 Washes [1]: −7.55%
- Curl Efficiency (%) After Treatment, 1 Wash and Dry ([1]; 1 wash with 5% SDS solution): 49.53%
- Curl Efficiency (%) After Treatment, 8 Washes and Dry [1, 5]: 45.79%
- pH of alkalizer composition ([2]; Table 7): 9.63
- pH of alkalizer composition ([2]; Table 8): 9.63
- pH of alkalizer composition ([2]; Table 9): 9.63
- pH ([2]; hair perming composition: base of Table 2 (7.50% thioglycolic acid) plus alkalizer, same molar percentage of alkalizer): 9.63
- % Change In Curl Efficiency From 1 to 8 Washes [3]: −11.17%
- Curl Efficiency (%) After Treatment, 1 Wash and Dry ([3]; 1 wash with 5% SDS solution): 61.03%
- Curl Efficiency (%) After Treatment, 8 Washes and Dry [3, 5]: 54.21%
- Straightening Efficiency (%) After Treatment, 1 Wash and Dry [4]: 85.71%
